Data as given in PubChem BioAssay AID686938 (Drosophila RNAi Screening Center, 2013)

- Assay: 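Looking for CRAC channel components and the factors controlling them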 (primary screen)
- Cells: Drosophila S2R+ cells
- Reagents: long dsRNA against Drosophila genes, about 0.25 µg dsRNA per well, roughly 10,000 cells
- Timing: 5 days of knock-down before the calcium assay
- Treatment: thapsigargin (SERCA pump blocker) to empty calcium stores; entry signal taken 4 min after adding it
- Read-out: 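Duplicate raw fluo-4 intensities per well from a plate reader, at rest and four minutes after thapsigargin emptied calcium stores; entry-to-rest ratio filled for only some wells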
- Direction: calcium entry signal: higher = stronger calcium signal after store depletion; resting calcium signal: higher = higher resting calcium signal
- Active means: 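Hit if the duplicate-averaged plate z-score for entry over resting signal is under −3; wells with weak total dye signal (Fmax z < −2) or more than 5 off-targets removed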
- Meaning of the calls: active = strongly reduced calcium entry; inactive = no strong reduction
In all, the deposit lists about 23,000 reagents; shown is a random part of those with a known target gene and a result. Over the whole deposit, 75 (0.33%) are marked active. 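Raw plate signals without normalisation; calls rest on plate z-scores that were not deposited; ratio present for only 364 wells.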 Entries without a mark were called inactive. Not given: the dose of the treatment.

gene | dsRNA | calcium entry signal, replicate 1 (fluorescence units) | calcium entry signal, replicate 2 (fluorescence units) | resting calcium signal, replicate 1 (fluorescence units) | resting calcium signal, replicate 2 (fluorescence units)
CG14260 | DRSC14755 | 4.11e7 | 7.22e7 | 1.93e7 | 2.72e7
CG10053 | DRSC12502 | 3.98e7 | 4.68e7 | 1.70e7 | 2.08e7
Cpr65Aw (Cuticular protein 65Aw) | DRSC08794 | 4.20e7 | 2.83e7 | 1.86e7 | 1.38e7
CG12321 | DRSC14499 | 5.79e7 | 4.43e7 | 2.76e7 | 1.93e7
CG3581 | DRSC15499 | 3.79e7 | 4.06e7 | 5.65e7 | 1.87e7
CG12994 | DRSC19192 | 2.86e7 | 3.81e7 | 1.39e7 | 1.72e7
CG12994 | DRSC19514 | 3.54e7 | 2.71e7 | 1.84e7 | 1.33e7
CG32102 | DRSC22015 | 2.89e7 | 6.75e7 | 1.40e7 | 2.92e7
CG13474 | DRSC10018 | 3.67e7 | 5.00e7 | 2.08e7 | 2.60e7
Oseg6 (Outer segment 6) | DRSC06066 | 4.63e7 | 6.34e7 | 1.98e7 | 2.92e7
Rab9 | DRSC03281 | 4.56e7 | 4.37e7 | 2.16e7 | 1.81e7
Alg13 (Alg13 UDP-N-acetylglucosaminyltransferase subunit) | DRSC14864 | 4.35e7 | 2.75e7 | 2.17e7 | 1.48e7
CG1532 | DRSC20516 | 4.13e7 | 4.37e7 | 1.99e7 | 1.97e7
CG9932 | DRSC03275 | 5.52e7 | 4.11e7 | 2.22e7 | 1.60e7
Gyc89Da (Guanylyl cyclase at 89Da) | DRSC15008 | 2.96e7 | 5.97e7 | 1.60e7 | 6.65e7
CG16719 | DRSC10222 | 5.35e7 | 4.22e7 | 3.34e7 | 1.73e7
Usp5 (Ubiquitin specific protease 5) | DRSC08244 | 3.34e7 | 3.57e7 | 1.88e7 | 1.86e7
CG9312 | DRSC16471 | 2.04e7 | 2.83e7 | 9.78e6 | 1.39e7
CG4704 | DRSC15628 | 5.67e7 | 8.64e7 | 2.48e7 | 3.04e7
CG2224 | DRSC15429 | 3.26e7 | 5.28e7 | 1.73e7 | 2.17e7
inaF-B | DRSC18903 | 2.83e7 | 2.66e7 | 1.37e7 | 1.32e7
CG30178 | DRSC21911 | 4.00e7 | 3.35e7 | 2.45e7 | 1.68e7
Pbp95 (PSEA-binding protein 95kD) | DRSC15448 | 5.12e7 | 4.42e7 | 2.46e7 | 2.20e7
CG9760 | DRSC11101 | 3.21e7 | 3.63e7 | 1.73e7 | 1.88e7

Part of the list above, showing only “resting calcium signal, replicate 2 (fluorescence units)”.
Pbp95 (PSEA-binding protein 95kD) [DRSC15448]	2.20e7
CG9760 [DRSC11101]	1.88e7
